According to patent US20170215424A1 (SUMITOMO CHEMICAL COMPANY, LIMITED, priority 2014, published 2017):
Some of these results come from one statement about several compounds together.

What was measured:
Musca domestica = test: Test Example 2: spray knockdown test on Musca domestica imagoes; assay type: in vivo; details: oil solution 2.0% w/v, 0.5 ml sprayed
Plutellaxylostella = test: Test Example 6: cabbage spray test on third instar larvae of Plutellaxylostella; assay type: in vivo; details: 500 ppm spray, 20 ml/cup, after 5 days

Structure (SMILES) | knockdown ratio of the test vermin within 15 minutes (Musca domestica) [%] | controlling value (Plutellaxylostella) [%]
O=C(NCC1CCOC1)C1=NOC(CCCOCc2ccccc2)C1 (centres unmarked) [present amide compound (13), N-(tetrahydrofuran-3-ylmethyl)-5-(3-benzyloxypropyl)-4,5-dihydroisoxazole-3-carboxamide] | ≥ 80 | 
CCCCC1CC(C(=O)NCC2CCOC2)=NO1 (centres unmarked) [present amide compound (1), N-(tetrahydrofuran-3-ylmethyl)-5-butyl-4,5-dihydroisoxazole-3-carboxamide] | ≥ 80 | 
O=C(NCC1CCOC1)C1=NOC(CCCCCOc2ccccc2)C1 (centres unmarked) [present amide compound (9), N-(tetrahydrofuran-3-ylmethyl)-5-(5-phenoxypentyl)-4,5-dihydroisoxazole-3-carboxamide] |  | ≥ 100
O=C(NCC1CCOC1)C1=NOC(COc2cccc(Cl)c2)CC1 (centres unmarked) [present amide compound (25), N-(tetrahydrofuran-3-ylmethyl)-6-(3-chloro-phenoxymethyl)-5,6-dihydro-4H-[1,2]oxazine-3-carboxamide] | ≥ 80 | 
O=C(NCC1CCOC1)C1=NOC(CCCCCCOc2ccccc2)C1 (centres unmarked) [present amide compound (10), N-(tetrahydrofuran-3-ylmethyl)-5-(6-phenoxyhexyl)-4,5-dihydroisoxazole-3-carboxamide] |  | ≥ 100
CCCCCC1CC(C(=O)NCC2CCOC2)=NO1 (centres unmarked) [present amide compound (2), N-(tetrahydrofuran-3-ylmethyl)-5-pentyl-4,5-dihydroisoxazole-3-carboxyamide] | ≥ 80 | ≥ 100
O=C(NCC1CCOC1)C1=NOC(CCCCCOCc2ccccc2)C1 (centres unmarked) [present amide compound (15), N-(tetrahydrofuran-3-ylmethyl)-5-(5-benzyloxypentyl)-4,5-dihydroisoxazole-3-carboxamide] | ≥ 80 | ≥ 100
O=C(NCC1CCOC1)C1=NOC(CCc2ccccc2)C1 (centres unmarked) [present amide compound (4), N-(tetrahydrofuran-3-ylmethyl)-5-phenethyl-4,5-dihydroisoxazole-3-carboxamide] | ≥ 80 | 
O=C(NCC1CCOC1)C1=NOC(CCCCCCOCc2ccccc2)C1 (centres unmarked) [present amide compound (16), N-(tetrahydrofuran-3-ylmethyl)-5-(6-benzyloxyhexyl)-4,5-dihydroisoxazole-3-carboxamide] | ≥ 80 | 
